Measured values published in PMC4484809.
For some of these results: No signal at the amounts used counts as a negative. For some of these results: At least one verdict rests on a figure or table, not on a statement of the authors. For some of these results: A weaker result is weaker than the reference pair of the same experiment. For some of these results: For at least one entry, the source does not settle the construct or the ends of the probe.

Key:
Experiment in all cases: EMSA
[1] = biological target: Ded1 I13A (Saccharomyces cerevisiae) (UniProt P06634); conditions: 3 mM AMP-PNP, EMSA: 50 mM Tris pH 7.8, 60 mM NaCl, 2 mM MgCl2, 0.1 mg/mL BSA, 5% glycerol, 1 U/uL RNasin Plus, 0.01% NP-40, 1 mM DTT, 900 nM Ded1, 10 nM RNA, 20 min room temperature, recombinant protein, residues 1-604
[2] = biological target: Ded1 wild type (Saccharomyces cerevisiae) (UniProt P06634); conditions: without AMP-PNP (supershifts stated to depend on AMP-PNP); EMSA: 50 mM Tris pH 7.8, 60 mM NaCl, 2 mM MgCl2, 0.1 mg/mL BSA, 5% glycerol, 1 U/uL RNasin Plus, 0.01% NP-40, 1 mM DTT; 900 nM Ded1, 10 nM RNA, 20 min room temperature; recombinant protein; residues 1-604
[3] = test system: Ded1 wild type + Xpo1 + Ran[GTP] Q71L; conditions: 3 mM AMP-PNP, GTP, slower-migrating complex, Ded1:RNA bands still visible, overall binding reduced; EMSA: 50 mM Tris pH 7.8, 60 mM NaCl, 2 mM MgCl2, 0.1 mg/mL BSA, 5% glycerol, 1 U/uL RNasin Plus, 0.01% NP-40, 1 mM DTT; 900 nM Ded1, 10 nM RNA, 20 min room temperature; recombinant protein

“CGAAUUCAAAACAAAACAAAACUAG [25mer FAM-labeled ssRNA]”: binds ([1]; with 990 nM Xpo1 and 1.17 uM Ran[GTP]Q71L, no additional supershift (no ternary complex)); binds ([1]; without Xpo1/Ran); no binding [2]. “CGAAUUCAAAACAAAACAAAACUAG [25mer FAM-labeled ssRNA]”: binds more weakly [3].
